Test results: article PMC12040169 (PLOS Biology, 2025)
Some of the results follow.

test system: T1, CTL2-GFP (C. trachomatis L2/434/Bu, GFP-expressing); parameters: species or system HeLa; Intracellular C. trachomatis growth in HeLa cells, bulk GFP fluorescence relative to DMSO; details: bulk GFP, single well; 28.5 h, 10 µM; inhibitor
T1 construct: L2/434/Bu, GFP-expressing

Point of comparison: `O=S(=O)(N1CCCCCC1)n1ccnc1` [CBK269241], “% of control remaining” value 128.057%. Against it:
- CC1CC1C(=O)N1CCCC(c2nn(C)c3ncccc23)C1 (stereo not drawn) [CBK282167] — higher, 128.832%
- CCc1nn(CC(=O)N2CCCC2)c(=O)c2cc3occc3n12 [CBK283748] — lower, 126.113%
- CNC(=O)C1CCCCN1C(=O)c1cn(CCOC)c2ccccc12 (stereo not drawn) [CBK306308] — lower, 96.5226%
- O=c1ccc2ccc(-c3ccsc3)nc2[nH]1 [CBK073710] — lower, 127.035%
- CC(C)(C)OC(=O)N1CCC(Oc2nccnc2OCc2ccc(Cl)cc2F)CC1 [CBK163968] — lower, 106.71%
- O=c1[nH]c2ncc(-c3cncc4ccccc34)nc2n1CCCO [CBK064814] — lower, 89.9951%
- Cn1c(CN2CCOCC2)nnc1SCC(=O)Nc1cccc(F)c1 [CBK269629] — higher, 166.335%
- O=S(=O)(Nc1ccc2[nH]ccc2c1)c1c(Cl)cc(C(F)(F)F)cc1Cl [CBK156328] — lower, 115.715%
- CCNS(=O)(=O)C1CCN(c2cc(C#N)ccc2C(F)(F)F)C1 (stereo not drawn) [CBK305402] — lower, 93.9177%
- O=C(Nc1ccc(Br)cc1C(=O)O)c1ccc2c(c1)C(=O)N(Cc1cccnc1)C2=O [CBK266776] — higher, 131.111%
- COc1ccc(CCC(=O)Nc2cccc(OCCC3CCNCC3)c2)cc1OC [CBK138350] — lower, 118.057%
- COc1ccc(CNC(=O)NC(=O)C2CCN(S(C)(=O)=O)CC2)c(OC)c1 [CBK034861] — higher, 138.811%
- O=C(NCc1ccc2c(c1)CCN2C(=O)c1ccncc1)c1cccc(F)c1 [CBK288586] — lower, 113.05%
- Cc1nc(C)n(CC2CCCN(Cc3cn4ccccc4c3C#N)C2)n1 (stereo not drawn) [CBK306103] — lower, 126.948%
- Cc1ccc2nc(-c3ccc(NC(=O)CSc4nc(-c5ccccc5)cc(=O)[nH]4)cc3)sc2c1 [CBK265861] — higher, 195.838%
- CC(=O)N1CCC2(C/C=C/C[C@H]3CN(C(=O)CC4CCOCC4)CC[C@H]3NC(=O)CNC2=O)CC1 [CBK292109] — lower, 127.979%
- O=C(CSc1nc2cc(Cl)ccc2[nH]1)Nc1ccccc1F [CBK269916] — lower, 90.3135%
- c1ccc(CSc2nnc(-c3ccco3)o2)cc1 [CBK026283] — lower, 118.422%
- CN(C(=O)C1(NC(N)=O)CC1)c1nc2c(s1)CC(c1ccccc1)CC2 (stereo not drawn) [CBK306022] — lower, 105.301%
- CC(C)n1c(=O)c2c(-c3cc(C(C)(C)C)no3)ncn2c2ccccc21 [CBK016666] — higher, 132.866%
- COc1ccc(-c2n[nH]c(=S)n2CC(=O)N2CCN(c3cccc(C)c3)CC2)cc1 [CBK295352] — higher, 148.193%
- Nc1n[nH]c(=O)c2ncn([C@H]3C[C@@H](O)[C@@H](CO)O3)c12 [CBK201233] — higher, 151.933%
- FC(F)(F)c1cccc(Nc2cncc(-c3cccs3)n2)c1 [CBK065750] — lower, 117.93%
- COc1ccc2ccccc2c1CN1CCN(C/C=C/c2ccccc2)CC1 [CBK261899] — lower, 93.9719%
- CC(C)(C)c1cc(C(=O)O)[nH]n1 [CBK260874] — lower, 104.813%
- CCc1nc(CN2CCOC(c3ccc(F)cc3)C2)cs1 (stereo not drawn) [CBK305090] — lower, 120.694%
- COc1nc2ccccc2nc1CCC(=O)NC(C)c1ccccc1 (stereo not drawn) [CBK270065] — lower, 109.263%
- CCN1CCN(Cc2c(C3CCCC3)[nH]c3ncccc23)CC1 [CBK285386] — lower, 118.687%
- CC(C)c1ccc(-c2cncc(NCCCN3CCOCC3)n2)cc1 [CBK065196] — higher, 175.385%
- Nc1ncc(-c2ccc(C(=O)N3CCOCC3)cc2)cc1C(=O)NCCc1ccc(O)cc1 [CBK158577] — lower, 116.578%
- N#Cc1c(N)nc2c(c1-c1ccc(Cl)cc1)CCCCCCCCCC2 [CBK262322] — lower, 100%
- CN(C(=O)c1cc[nH]n1)C1CCN(c2ncnc3ccccc23)CC1 [CBK305916] — lower, 121.587%
- COc1ccc(N2CCN(c3nc(NCCO)nc(N4CCOCC4)n3)CC2)cc1 [CBK265413] — lower, 111.193%
- COc1ccc(-c2cc(-c3nnc(S)n3-c3ccccc3Cl)[nH]n2)cc1 [CBK265880] — lower, 100%
- O=C(NCc1ccc(Cl)cc1)c1cnc(-c2cccc(C(F)(F)F)c2)c(-c2ccncc2)c1 [CBK037607] — higher, 154.324%
- Cn1cc(CN2C3CCC(C3)[C@@H]2COc2ccc(F)cc2)cn1 (stereo partly drawn) [CBK282257] — lower, 95.8489%
- CCC1(O)C(C)C(c2ccc(Cl)cc2)NC(c2ccc(Cl)cc2)C1C (stereo not drawn) [CBK025376C] — lower, 79.1492%
- CC(C)C(=O)N1CCCc2cc(C(O)CN3CCCCC3)ccc21 (stereo not drawn) [CBK282127] — higher, 151.73%
- O=C(CSc1nc(-c2cccs2)cc(C(F)(F)F)n1)N1CCSCC1 [CBK307371] — lower, 118.58%
- O=S(=O)(Nc1nnc(C(F)(F)F)s1)c1ccc(F)cc1 [CBK026663] — lower, 96.9426%
- O=C1CC[C@@H](NCc2ccncc2)[C@H](c2cc(F)cc(F)c2)N1 [CBK283131] — lower, 104.698%
- Cc1cc(NS(=O)(=O)c2ccc(NC(=S)NCC3CCCO3)cc2)no1 (stereo not drawn) [CBK268160] — lower, 58.4479%
- O=C(O)C1CC=CCC1C(=O)Nc1ccc(S(=O)(=O)N2CCCc3ccccc32)cc1 (stereo not drawn) [CBK268179] — lower, 113.933%
- CN(C)S(=O)(=O)c1cc(C(=O)Nc2ccc(O)cc2)c(Cl)cc1Cl [CBK266767] — lower, 114.876%
- O=C(CNC(=O)c1ccccc1C(=O)O)Nc1ccccc1 [CBK286690] — lower, 111.907%
- CN(C)c1ccc(C(=O)N2CCC(c3cc4cnccc4[nH]3)CC2)cc1 [CBK283446] — higher, 132.953%
- Cc1ccc(OCc2occc2C(=O)N2CCc3[nH]cnc3C2)cc1 [CBK307717] — higher, 150.39%
- CCCC/C(=N/N=C(\CCCC)c1ccncc1)c1ccncc1 [CBK016521] — lower, 94.2791%
- COc1ccc(/C=C(\C)C(=O)Nc2cccc(N3CCNCC3)c2)cc1OC [CBK034115T] — lower, 100%
- Cc1ccc(C)c2c(C)c(C(=O)N3CCC(O)C(C)C3)[nH]c12 (stereo not drawn) [CBK282527] — lower, 118.274%
- O=C(OCCC1SC(NC2CC3C=CC2C3)=NC1=O)c1ccc(Cl)c(Cl)c1 (stereo not drawn) [CBK200056T] — lower, 103.807%
- O=S(=O)(NC1CCN(Cc2ccccc2)CC1)c1cccc2nonc12 [CBK062030] — lower, 92.8587%
- NC(=O)c1ccc(-c2nccnc2NCc2ccc3c(c2)OCO3)cc1 [CBK036696] — higher, 218.266%
- O=C(CCN1CCc2ccccc2C1)Nc1cccc(F)c1 [CBK264282] — lower, 109.599%
- Cc1ccc2c(c1)C(NC(=O)N(C)C1CCS(=O)(=O)CC1)CC(C)(C)O2 (stereo not drawn) [CBK307654] — higher, 132.597%
- Cn1cc(C(=O)N2CCOCC2c2nc(-c3cccs3)no2)cn1 (stereo not drawn) [CBK305422] — lower, 116.023%
- COc1cc(-c2cnc(N)c(N[C@H](CO)C(C)C)n2)cc(OC)c1OC [CBK063765] — lower, 123.852%
- CN(c1ncc(Br)cc1C(=O)Nc1ccc(C(F)(F)F)cc1)S(C)(=O)=O [CBK076542] — lower, 100%
- CSc1nc(NC(=O)CCCc2ccccc2)cc(N2CCNCC2)n1 [CBK050258T] — lower, 56.4184%
- CCn1cc(NC(=O)C(CC)(CC)CN)ccc1=O [CBK304320C] — higher, 128.441%
- CS(=O)(=O)c1ccc(-c2nccnc2N2CCN(c3ccncc3)CC2)cc1 [CBK036924] — higher, 230.974%
- O=C(O)CCN1CCN(S(=O)(=O)c2ccc3ccccc3c2)CC1 [CBK269255] — higher, 153.322%
- COc1ccccc1N1CCN(C(=O)NCc2cnc(C)cn2)CC1 [CBK155367] — lower, 124.843%
- CC(C)(CO)CCCn1cncc1-c1cnn(C2CCCCC2)c1 [CBK281779] — lower, 124.877%
- CCC(=O)N(C)[C@H]1CC[C@]2(CC1)CNC(=O)c1ccccc1O2 [CBK281683] — lower, 110.864%
- Cc1cc(NS(=O)(=O)c2cccc(Cl)c2C)on1 [CBK022499] — lower, 113.256%
- COc1ccc([C@@]23CC[C@@H](NC(=O)c4cc(F)c(Cl)cc4Cl)C[C@@H]2N(C)CC3)cc1OC [CBK074264T] — lower, 50.894%
- COc1cc(CN2C[C@@H](c3ccccc3)[C@@H]3NC(=O)CCCC[C@H]32)cc(OC)c1 [CBK285646] — lower, 114.21%
- O=C(NCCNc1c(Cl)cccc1[N+](=O)[O-])c1cccc(Br)c1 [CBK263940] — lower, 104.752%
- CCN(Cc1ccc(C#N)cc1F)C(=O)Nc1cnn(CCOC)c1 [CBK305697] — lower, 124.682%
- CCOC(=O)Cn1nc(-c2nonc2N)nc1-c1nonc1N [CBK265482] — higher, 129.173%
- COc1ccc(C(=O)N(Cc2ccco2)Cc2cc3ccccc3nc2O)cc1 [CBK269594] — lower, 81.8404%
- COc1cc2c(cc1OC)C(C)N(C(=O)Nc1ccc3c(c1)OCCO3)CC2 (stereo not drawn) [CBK086204] — higher, 136.597%
- CN1CCN(c2ccc(C(=O)O)cc2)CC1 [CBK264773] — lower, 119.326%
- CC(C)C(=O)N[C@@H](C)Cn1c(C(F)(F)F)cc2cccnc21 [CBK283231] — lower, 112.861%
- Cc1nc2n(CCN3CCCCC3)c3ccccc3n2c1C(=O)c1cccs1 [CBK278242B] — lower, 118.26%
- COC(=O)Nc1ccc(S(=O)(=O)N2CCCC(C(=O)Nc3ccc4c(c3)OCO4)C2)cc1 (stereo not drawn) [CBK265361] — lower, 117.479%
